No constants are given. Whether binding was seen depends on the method and setting. Some results given as binding are weak or reduced against the parent protein; the word gives no strength. Where a sequence is shown, tags or fusion partners need not be part of it.
molecular target: clusterin–RFP–GFP (UniProt P10909); experiment: co-IP; recombinant clusterin with recombinant substrates, with or without heat stress; which sepharose (GFP-nanobody or ALFA tag-nanobody) is not told; both purified

Sequences of proteins named here, by UniProt entry; tags and fusion partners are left off.
UniProt Q16401: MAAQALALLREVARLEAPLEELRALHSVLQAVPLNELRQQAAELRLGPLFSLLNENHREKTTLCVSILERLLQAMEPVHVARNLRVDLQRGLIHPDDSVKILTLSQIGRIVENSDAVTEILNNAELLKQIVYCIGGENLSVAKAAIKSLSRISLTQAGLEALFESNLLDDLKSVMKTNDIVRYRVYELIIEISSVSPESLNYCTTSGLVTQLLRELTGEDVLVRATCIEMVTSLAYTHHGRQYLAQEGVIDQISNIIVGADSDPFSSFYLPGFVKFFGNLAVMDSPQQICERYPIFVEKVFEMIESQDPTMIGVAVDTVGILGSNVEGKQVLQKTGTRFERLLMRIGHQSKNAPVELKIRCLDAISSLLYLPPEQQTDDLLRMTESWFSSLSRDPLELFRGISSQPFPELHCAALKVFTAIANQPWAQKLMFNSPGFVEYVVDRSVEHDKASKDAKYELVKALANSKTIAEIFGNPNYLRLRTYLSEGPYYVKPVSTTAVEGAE

binding | Molecule
binds | His–ALFA–3C–PSMD5 (from UniProt Q16401 1-504)
binds | His–ALFA–3C–ESD (natural protein, human, UniProt P10768 1-282, looked up, S-formylglutathione hydrolase (ESD), cDNA amplified from HEK293 total cDNA; A 3C protease site stands between the tags and the protein; Heat-stressed at 50 °C for 1 h together with the chaperone; also called recombinant ESD; source: E. coli BL21(DE3) LOBSTR, purified (HisPur Cobalt Resin)) MALKQISSNKCFGGLQKVFEHDSVELNCKMKFAVYLPPKAETGKCPALYWLSGLTCTEQNFISKSGYHQSASEHGLVVIAPDTSPRGCNIKGEDESWDFGTGAGFYVDATEDPWKTNYRMYSYVTEELPQLINANFPVDPQRMSIFGHSMGGHGALICALKNPGKYKSVSAFAPICNPVLCPWGKKAFSGYLGTDQSKWKAYDATHLVKSYPGSQLDILIDQGKDDQFLLDGQLLPDNFIAACTEKKIPVVFRLQEGYDHSYYFIATFITDHIRHHAKYLNA
binds | His–ALFA–3C–ALDH1A1 (natural protein, human, UniProt P00352 1-501, looked up, retinal dehydrogenase 1 (ALDH1A1), cDNA amplified from HEK293 total cDNA; A 3C protease site stands between the tags and the protein; Heat-stressed at 50 °C for 1 h together with the chaperone; also called recombinant ALDH1A1; source: E. coli BL21(DE3) LOBSTR, purified (HisPur Cobalt Resin)) MSSSGTPDLPVLLTDLKIQYTKIFINNEWHDSVSGKKFPVFNPATEEELCQVEEGDKEDVDKAVKAARQAFQIGSPWRTMDASERGRLLYKLADLIERDRLLLATMESMNGGKLYSNAYLNDLAGCIKTLRYCAGWADKIQGRTIPIDGNFFTYTRHEPIGVCGQIIPWNFPLVMLIWKIGPALSCGNTVVVKPAEQTPLTALHVASLIKEAGFPPGVVNIVPGYGPTAGAAISSHMDIDKVAFTGSTEVGKLIKEAAGKSNLKRVTLELGGKSPCIVLADADLDNAVEFAHHGVFYHQGQCCIAASRIFVEESIYDEFVRRSVERAKKYILGNPLTPGVTQGPQIDKEQYDKILDLIESGKKEGAKLECGGGPWGNKGYFVQPTVFSNVTDEMRIAKEEIFGPVQQIMKFKSLDDVIKRANNTFYGLSAGVFTKDIDKAITISSALQAGTVWVNCYGVVSAQCPFGGFKMSGNGRELGEYGFHEYTEVKTVTVKISQKNS

Source: paper PMC10050189, “Alpha 2-macroglobulin acts as a clearance factor in the lysosomal degradation of extracellular misfolded proteins” (Scientific Reports, 2023)
